Assay results as given in the supplement of paper PMC8728848.
This is one part of the list.

How the values were obtained:
Assay in all cases: glycan array binding signal (z-score within array); higher = stronger binding
Details in all cases: glycan notation: IUPAC condensed, linker removed
[1] = biological target: Fuc(a1-2)Gal(b1-4)GlcNAc(b1-3)Gal(b1-4)GlcNAc(b1-3)Gal(b1-4)GlcNAc
Procedure, shortened: (§1)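 Negative Z-scores can be read as non-binding. The Z-score is calculated within each array and then averaged across arrays of one protein sequence at different concentrations or buffers and across linkers. Arrays, 3228 in all, were curated from the Consortium for Functional Glycomics database and kept only where the protein sequence was available.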

[2] = biological target: Fuc(a1-2)Gal(b1-4)GlcNAc(b1-3)GalNAc
Procedure, shortened: as §1

[3] = biological target: Fuc(a1-2)Gal(b1-4)GlcNAc(b1-3)[Fuc(a1-2)Gal(b1-4)GlcNAc(b1-6)]GalNAc
Procedure, shortened: as §1

[4] = biological target: Fuc(a1-2)Gal(b1-4)GlcNAc(b1-3)[Fuc(a1-3)[Gal(b1-4)]GlcNAc(b1-6)]Gal(b1-4)Glc
Procedure, shortened: as §1

[5] = biological target: Fuc(a1-2)Gal(b1-4)GlcNAc(b1-6)GalNAc
Procedure, shortened: as §1

[6] = biological target: Fuc(a1-2)Gal(b1-4)GlcNAc6S
Procedure, shortened: as §1

[7] = biological target: Fuc(a1-2)Gal(b1-4)[Fuc(a1-3)]GlcNAc
Procedure, shortened: as §1

[8] = biological target: Fuc(a1-2)Gal(b1-4)[Fuc(a1-3)]GlcNAc(b1-2)Man(a1-3)[Fuc(a1-2)Gal(b1-4)[Fuc(a1-3)]GlcNAc(b1-2)Man(a1-6)]Man(b1-4)GlcNAc(b1-4)[Fuc(a1-6)]GlcNAc
Procedure, shortened: as §1

[9] = biological target: Fuc(a1-2)Gal(b1-4)[Fuc(a1-3)]GlcNAc(b1-2)[Fuc(a1-2)Gal(b1-4)[Fuc(a1-3)]GlcNAc(b1-4)]Man(a1-3)[Fuc(a1-2)Gal(b1-4)[Fuc(a1-3)]GlcNAc(b1-2)Man(a1-6)]Man(b1-4)GlcNAc(b1-4)GlcNAc
Procedure, shortened: as §1

[10] = biological target: Fuc(a1-2)Gal(b1-4)[Fuc(a1-3)]GlcNAc(b1-3)Gal(b1-4)[Fuc(a1-3)]GlcNAc
Procedure, shortened: as §1

[11] = biological target: Fuc(a1-2)Gal(b1-4)[Fuc(a1-3)]GlcNAc(b1-3)Gal(b1-4)[Fuc(a1-3)]GlcNAc(b1-3)Gal(b1-4)[Fuc(a1-3)]GlcNAc
Procedure, shortened: as §1

[12] = biological target: Fuc(a1-2)Gal(b1-4)[Fuc(a1-3)]GlcNAc(b1-3)GalNAc
Procedure, shortened: as §1

[13] = biological target: Fuc(a1-2)Gal(b1-4)[Fuc(a1-3)]GlcNAc(b1-3)[Neu5Ac(a2-6)Gal(b1-4)GlcNAc(b1-6)]Gal(b1-4)Glc
Procedure, shortened: as §1

[14] = biological target: Fuc(a1-2)Gal3S(b1-4)GlcNAc
Procedure, shortened: as §1

[15] = biological target: Fuc(a1-2)Gal6S(b1-3)GlcNAc
Procedure, shortened: as §1

[16] = biological target: Fuc(a1-2)Gal6S(b1-3)GlcNAc6S
Procedure, shortened: as §1

Fuc(a1-2)Gal6S(b1-4)Glc = biological target: Fuc(a1-2)Gal6S(b1-4)Glc
Procedure, shortened: as §1

[17] = biological target: Fuc(a1-2)Gal6S(b1-4)Glc6S
Procedure, shortened: as §1

Fuc(a1-2)[Gal(a1-3)]Gal = biological target: Fuc(a1-2)[Gal(a1-3)]Gal
Procedure, shortened: as §1

[18] = biological target: Fuc(a1-2)[Gal(a1-3)]Gal(b1-3)GalNAc
Procedure, shortened: as §1

[19] = biological target: Fuc(a1-2)[Gal(a1-3)]Gal(b1-3)GalNAc(b1-3)Gal(a1-4)Gal(b1-4)Glc
Procedure, shortened: as §1

[20] = biological target: Fuc(a1-2)[Gal(a1-3)]Gal(b1-3)GlcNAc
Procedure, shortened: as §1

[21] = biological target: Fuc(a1-2)[Gal(a1-3)]Gal(b1-3)GlcNAc(b1-2)Man(a1-3)[Fuc(a1-2)[Gal(a1-3)]Gal(b1-3)GlcNAc(b1-2)Man(a1-6)]Man(b1-4)GlcNAc(b1-4)GlcNAc
Procedure, shortened: as §1

[22] = biological target: Fuc(a1-2)[Gal(a1-3)]Gal(b1-3)GlcNAc(b1-2)Man(a1-3)[Fuc(a1-2)[Gal(a1-3)]Gal(b1-3)GlcNAc(b1-2)Man(a1-6)]Man(b1-4)GlcNAc(b1-4)[Fuc(a1-6)]GlcNAc
Procedure, shortened: as §1

[23] = biological target: Fuc(a1-2)[Gal(a1-3)]Gal(b1-3)GlcNAc(b1-3)GalNAc
Procedure, shortened: as §1

[24] = biological target: Fuc(a1-2)[Gal(a1-3)]Gal(b1-3)GlcNAc(b1-6)GalNAc
Procedure, shortened: as §1

[25] = biological target: Fuc(a1-2)[Gal(a1-3)]Gal(b1-4)Glc
Procedure, shortened: as §1

[26] = biological target: Fuc(a1-2)[Gal(a1-3)]Gal(b1-4)GlcNAc
Procedure, shortened: as §1

[27] = biological target: Fuc(a1-2)[Gal(a1-3)]Gal(b1-4)GlcNAc(b1-2)Man
Procedure, shortened: as §1

[28] = biological target: Fuc(a1-2)[Gal(a1-3)]Gal(b1-4)GlcNAc(b1-2)Man(a1-3)[Fuc(a1-2)[Gal(a1-3)]Gal(b1-4)GlcNAc(b1-2)Man(a1-6)]Man(b1-4)GlcNAc(b1-4)GlcNAc
Procedure, shortened: as §1

B1: Mnn9-2N3 (Aspergillus fumigatus) (protein)
chain: MAVARRMRRTNPITLLLAAILAIGFFIFVLSPSTTSASPVKAGSASSSSTSQQRREDNAAENPLSPPTKPFFKSQPVRHDGQQAPPPVVQYNLNQLSSTSTSAANGERILILTPMARFVPEYWDNVVKLTYPHELISIGFIIPKNKEGNAALAALEAAIAKTQSGPIDKRFASISILRQDFEPPLQSQDEKERHKISNQKARRESMSRARNSLLFTTLGPATAWVLWLDADIVETPPTLIQDLTAHDHPVLVPNCYQRYYNSEKKKMDVRPYDYNSWIDSSTAQSMAAEMGPDEILLEGYAEMPTYRTLMAHLADTANPNPKKVIELDGVGGTALMVKAEVHRDGAMFPAFPFYHLVETEGFAKMAKRLGYSVYGLPDYFVSRNFFFFFFFFFFG
- glycan array binding signal (z-score) [1]: 0.442
- glycan array binding signal (z-score) [2]: -1
- glycan array binding signal (z-score) [3]: -0.335
- glycan array binding signal (z-score) [4]: 0.664
- glycan array binding signal (z-score) [5]: -0.408
- glycan array binding signal (z-score) [6]: 1.62
- glycan array binding signal (z-score) [7]: 1.63
- glycan array binding signal (z-score) [8]: 3.21
- glycan array binding signal (z-score) [9]: 0.515
- glycan array binding signal (z-score) [10]: 0.007
- glycan array binding signal (z-score) [11]: -0.263
- glycan array binding signal (z-score) [12]: -0.191
- glycan array binding signal (z-score) [13]: -0.511
- glycan array binding signal (z-score) [14]: 1.83
- glycan array binding signal (z-score) [15]: 0.514
- glycan array binding signal (z-score) [16]: -0.594
- glycan array binding signal (z-score) (Fuc(a1-2)Gal6S(b1-4)Glc): -0.467
- glycan array binding signal (z-score) [17]: 0.019
- glycan array binding signal (z-score) (Fuc(a1-2)[Gal(a1-3)]Gal): -0.061
- glycan array binding signal (z-score) [18]: 0.042
- glycan array binding signal (z-score) [19]: -0.502
- glycan array binding signal (z-score) [20]: 1.21
- glycan array binding signal (z-score) [21]: 0.477
- glycan array binding signal (z-score) [22]: -0.24
- glycan array binding signal (z-score) [23]: 0.104
- glycan array binding signal (z-score) [24]: -0.364
- glycan array binding signal (z-score) [25]: -0.824
- glycan array binding signal (z-score) [26]: -1.13
- glycan array binding signal (z-score) [27]: -0.156
- glycan array binding signal (z-score) [28]: -1.33
